According to patent US6864224 (BROWN UNIVERSITY RESEARCH FOUNDATION, dated 2005):
These are yes or no findings as the source states them, for the method shown. Binding seen in cells or lysates may run through a third protein. Some entries that bind do so weakly or less than the wild type.

Legend:
[1] = molecular target: endogenous MEK of Rat-1 cells (rat (Rat-1 cells)) (UniProt Q01986); experiment: co-immunoprecipitation of endogenous proteins with RKIP antiserum
[2] = molecular target: endogenous MEK of Rat-1 cells (rat (Rat-1 cells)) (UniProt Q01986); experiment: co-immunoprecipitation of endogenous proteins; also seen in reciprocal immunoprecipitations

binding [1]: binds
binding [2]: binds
B1: endogenous RKIP of Rat-1 cells (other, rat (Rat-1 cells), UniProt P31044 2-187, looked up)
chain: AADISQWAGPLSLQEVDEPPQHALRVDYGGVTVDELGKVLTPTQVMNRPSSISWDGLDPGKLYTLVLTDPDAPSRKDPKFREWHHFLVVNMKGNDISSGTVLSEYVGSGPPKDTGLHRYVWLVYEQEQPLNCDEPILSNKSGDNRGKFKVESFRKKYHLGAPVAGTCFQAEWDDSVPKLHDQLAGK
notes: Endogenous protein in cell lysates
